In assay [1] the target is T1, LGN (mouse, MELC) (mouse (endogenous in MELC)) (UniProt Q8VDU0).
T1 sequence: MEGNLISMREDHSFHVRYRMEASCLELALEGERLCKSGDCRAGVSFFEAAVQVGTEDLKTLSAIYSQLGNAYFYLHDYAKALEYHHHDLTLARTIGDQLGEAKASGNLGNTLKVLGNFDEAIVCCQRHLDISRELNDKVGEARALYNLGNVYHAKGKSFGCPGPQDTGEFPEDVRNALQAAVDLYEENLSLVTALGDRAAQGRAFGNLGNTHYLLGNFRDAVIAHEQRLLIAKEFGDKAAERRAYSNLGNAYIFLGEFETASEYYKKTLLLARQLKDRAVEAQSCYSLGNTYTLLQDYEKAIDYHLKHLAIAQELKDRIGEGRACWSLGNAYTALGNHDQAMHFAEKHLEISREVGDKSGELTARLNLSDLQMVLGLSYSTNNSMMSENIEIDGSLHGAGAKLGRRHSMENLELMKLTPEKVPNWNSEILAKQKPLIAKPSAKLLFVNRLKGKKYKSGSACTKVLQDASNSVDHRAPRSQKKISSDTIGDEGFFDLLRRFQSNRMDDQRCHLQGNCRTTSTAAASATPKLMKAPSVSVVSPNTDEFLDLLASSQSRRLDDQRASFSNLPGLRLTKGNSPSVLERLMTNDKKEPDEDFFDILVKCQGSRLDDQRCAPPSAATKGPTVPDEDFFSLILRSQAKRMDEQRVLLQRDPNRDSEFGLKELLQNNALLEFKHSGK
Description: co-IP; induced MELC lysates (50 mM HEPES pH 7.5, 150 mM NaCl, 1% NP-40) precipitated with anti-4.1R, anti-Numb, anti-LGN, anti-NuMA or anti-p150^Glued Ab on protein A-Sepharose, rabbit or mouse IgG as controls; immunoblot with each respective Ab. (In western blotting, separated proteins are transferred to a membrane and probed.)

The chains behind the UniProt entries cited, without tags or fusion partners.
UniProt E9Q7G0: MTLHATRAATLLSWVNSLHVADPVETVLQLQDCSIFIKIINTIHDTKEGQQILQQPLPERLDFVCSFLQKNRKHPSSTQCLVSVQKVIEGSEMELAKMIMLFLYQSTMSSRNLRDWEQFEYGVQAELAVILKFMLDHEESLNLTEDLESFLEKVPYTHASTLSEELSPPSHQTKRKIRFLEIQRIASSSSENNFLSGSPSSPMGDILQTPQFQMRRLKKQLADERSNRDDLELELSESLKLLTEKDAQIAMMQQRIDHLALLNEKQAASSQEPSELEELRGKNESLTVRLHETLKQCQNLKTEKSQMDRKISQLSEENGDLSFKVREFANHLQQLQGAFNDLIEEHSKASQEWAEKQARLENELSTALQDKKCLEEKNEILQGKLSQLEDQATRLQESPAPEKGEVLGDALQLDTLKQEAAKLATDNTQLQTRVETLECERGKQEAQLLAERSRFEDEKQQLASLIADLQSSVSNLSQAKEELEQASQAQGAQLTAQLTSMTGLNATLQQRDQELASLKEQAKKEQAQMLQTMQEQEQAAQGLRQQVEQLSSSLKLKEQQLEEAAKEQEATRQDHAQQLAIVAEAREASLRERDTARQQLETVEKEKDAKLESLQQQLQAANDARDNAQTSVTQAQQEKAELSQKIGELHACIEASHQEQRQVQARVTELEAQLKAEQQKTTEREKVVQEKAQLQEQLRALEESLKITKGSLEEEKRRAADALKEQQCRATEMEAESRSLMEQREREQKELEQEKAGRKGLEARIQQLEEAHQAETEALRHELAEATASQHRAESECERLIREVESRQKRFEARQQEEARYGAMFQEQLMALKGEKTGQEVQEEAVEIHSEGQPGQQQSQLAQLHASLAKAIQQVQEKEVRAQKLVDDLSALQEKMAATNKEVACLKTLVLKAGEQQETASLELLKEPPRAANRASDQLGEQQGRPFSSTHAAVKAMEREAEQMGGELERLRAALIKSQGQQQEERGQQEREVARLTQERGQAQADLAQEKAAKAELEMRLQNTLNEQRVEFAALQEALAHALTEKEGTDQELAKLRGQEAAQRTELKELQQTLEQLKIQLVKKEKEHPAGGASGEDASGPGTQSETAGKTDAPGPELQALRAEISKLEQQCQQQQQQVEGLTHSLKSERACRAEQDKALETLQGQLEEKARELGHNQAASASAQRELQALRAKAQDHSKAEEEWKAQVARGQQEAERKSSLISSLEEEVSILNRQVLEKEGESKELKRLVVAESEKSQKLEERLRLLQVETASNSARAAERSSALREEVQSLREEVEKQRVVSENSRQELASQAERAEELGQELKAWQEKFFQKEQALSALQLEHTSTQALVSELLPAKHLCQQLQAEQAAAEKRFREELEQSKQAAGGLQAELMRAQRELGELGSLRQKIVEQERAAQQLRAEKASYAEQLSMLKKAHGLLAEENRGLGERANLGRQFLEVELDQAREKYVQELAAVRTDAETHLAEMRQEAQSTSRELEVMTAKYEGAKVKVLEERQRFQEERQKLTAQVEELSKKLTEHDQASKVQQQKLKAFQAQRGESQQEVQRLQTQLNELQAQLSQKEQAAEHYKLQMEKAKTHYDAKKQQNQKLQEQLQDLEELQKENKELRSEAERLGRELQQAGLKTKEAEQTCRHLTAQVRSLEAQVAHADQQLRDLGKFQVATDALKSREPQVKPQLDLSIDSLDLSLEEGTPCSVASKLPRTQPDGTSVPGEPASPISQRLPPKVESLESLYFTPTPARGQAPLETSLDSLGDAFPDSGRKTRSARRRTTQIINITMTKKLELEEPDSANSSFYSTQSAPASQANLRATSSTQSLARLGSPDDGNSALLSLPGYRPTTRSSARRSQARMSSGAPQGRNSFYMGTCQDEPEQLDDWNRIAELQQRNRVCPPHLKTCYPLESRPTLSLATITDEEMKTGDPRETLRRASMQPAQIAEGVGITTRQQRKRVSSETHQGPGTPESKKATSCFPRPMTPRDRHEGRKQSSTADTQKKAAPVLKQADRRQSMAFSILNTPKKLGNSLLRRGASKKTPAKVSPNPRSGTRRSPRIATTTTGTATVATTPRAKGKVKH
UniProt O08788: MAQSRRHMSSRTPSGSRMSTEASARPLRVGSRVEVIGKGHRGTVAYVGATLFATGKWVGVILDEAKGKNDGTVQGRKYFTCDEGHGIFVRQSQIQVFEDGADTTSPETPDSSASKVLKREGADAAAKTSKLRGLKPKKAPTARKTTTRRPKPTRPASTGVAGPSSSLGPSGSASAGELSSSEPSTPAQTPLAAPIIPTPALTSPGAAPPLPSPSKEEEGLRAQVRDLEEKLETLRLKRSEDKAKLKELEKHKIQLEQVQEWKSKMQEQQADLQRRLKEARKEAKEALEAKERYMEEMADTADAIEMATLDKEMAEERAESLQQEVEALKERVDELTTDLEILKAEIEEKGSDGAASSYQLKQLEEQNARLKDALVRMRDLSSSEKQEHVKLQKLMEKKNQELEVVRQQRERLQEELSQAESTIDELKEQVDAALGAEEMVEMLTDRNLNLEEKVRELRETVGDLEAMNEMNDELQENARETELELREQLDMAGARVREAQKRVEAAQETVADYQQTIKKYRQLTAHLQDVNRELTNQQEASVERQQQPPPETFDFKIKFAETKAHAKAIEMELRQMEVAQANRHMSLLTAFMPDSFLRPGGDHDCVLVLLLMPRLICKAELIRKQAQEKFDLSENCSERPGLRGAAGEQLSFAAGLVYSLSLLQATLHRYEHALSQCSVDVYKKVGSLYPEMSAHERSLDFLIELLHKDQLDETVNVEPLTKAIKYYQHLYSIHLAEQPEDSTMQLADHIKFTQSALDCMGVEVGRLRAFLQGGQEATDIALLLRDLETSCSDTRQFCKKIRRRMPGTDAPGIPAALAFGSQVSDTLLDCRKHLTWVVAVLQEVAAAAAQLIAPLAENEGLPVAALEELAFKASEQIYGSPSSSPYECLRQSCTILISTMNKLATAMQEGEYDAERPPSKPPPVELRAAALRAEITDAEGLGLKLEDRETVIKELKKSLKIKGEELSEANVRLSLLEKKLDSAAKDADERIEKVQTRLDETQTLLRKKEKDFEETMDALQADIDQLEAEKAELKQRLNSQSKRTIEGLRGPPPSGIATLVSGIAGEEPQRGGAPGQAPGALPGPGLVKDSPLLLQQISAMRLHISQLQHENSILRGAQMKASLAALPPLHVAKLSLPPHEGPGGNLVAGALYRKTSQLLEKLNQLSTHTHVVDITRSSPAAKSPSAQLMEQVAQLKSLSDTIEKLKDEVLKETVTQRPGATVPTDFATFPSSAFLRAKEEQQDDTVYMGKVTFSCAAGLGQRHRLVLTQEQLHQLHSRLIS

The target of assay [2] is NuMA (mouse, MELC) (mouse (endogenous in MELC)) (UniProt E9Q7G0). Described as above.

Results are given in words; binding and its absence hold for the method and conditions named. In cells and extracts the contact can be indirect. Some results given as binding are weak or reduced against the parent protein; the word gives no strength.

Consider “NuMA (mouse, MELC) (from UniProt E9Q7G0 1-2094)”, for which the binding entry in assay [1] is “binds”. For “p150^Glued (mouse, MELC) (from UniProt O08788 1-1281)”, the binding result in assay [1] and in assay [2] was “binds” each time.

The record behind these values is publication PMC8408529.
